# Experimental data taken from the supplement of paper PMC12823440, “Inhibitors supercharge kinase turnover through native proteolytic circuits” (Nature, 2025).
# Sequences of proteins named here, by UniProt entry; tags and fusion partners are left off. A change or cut given only in a name is not applied to a line headed by its entry.
# UniProt P14616: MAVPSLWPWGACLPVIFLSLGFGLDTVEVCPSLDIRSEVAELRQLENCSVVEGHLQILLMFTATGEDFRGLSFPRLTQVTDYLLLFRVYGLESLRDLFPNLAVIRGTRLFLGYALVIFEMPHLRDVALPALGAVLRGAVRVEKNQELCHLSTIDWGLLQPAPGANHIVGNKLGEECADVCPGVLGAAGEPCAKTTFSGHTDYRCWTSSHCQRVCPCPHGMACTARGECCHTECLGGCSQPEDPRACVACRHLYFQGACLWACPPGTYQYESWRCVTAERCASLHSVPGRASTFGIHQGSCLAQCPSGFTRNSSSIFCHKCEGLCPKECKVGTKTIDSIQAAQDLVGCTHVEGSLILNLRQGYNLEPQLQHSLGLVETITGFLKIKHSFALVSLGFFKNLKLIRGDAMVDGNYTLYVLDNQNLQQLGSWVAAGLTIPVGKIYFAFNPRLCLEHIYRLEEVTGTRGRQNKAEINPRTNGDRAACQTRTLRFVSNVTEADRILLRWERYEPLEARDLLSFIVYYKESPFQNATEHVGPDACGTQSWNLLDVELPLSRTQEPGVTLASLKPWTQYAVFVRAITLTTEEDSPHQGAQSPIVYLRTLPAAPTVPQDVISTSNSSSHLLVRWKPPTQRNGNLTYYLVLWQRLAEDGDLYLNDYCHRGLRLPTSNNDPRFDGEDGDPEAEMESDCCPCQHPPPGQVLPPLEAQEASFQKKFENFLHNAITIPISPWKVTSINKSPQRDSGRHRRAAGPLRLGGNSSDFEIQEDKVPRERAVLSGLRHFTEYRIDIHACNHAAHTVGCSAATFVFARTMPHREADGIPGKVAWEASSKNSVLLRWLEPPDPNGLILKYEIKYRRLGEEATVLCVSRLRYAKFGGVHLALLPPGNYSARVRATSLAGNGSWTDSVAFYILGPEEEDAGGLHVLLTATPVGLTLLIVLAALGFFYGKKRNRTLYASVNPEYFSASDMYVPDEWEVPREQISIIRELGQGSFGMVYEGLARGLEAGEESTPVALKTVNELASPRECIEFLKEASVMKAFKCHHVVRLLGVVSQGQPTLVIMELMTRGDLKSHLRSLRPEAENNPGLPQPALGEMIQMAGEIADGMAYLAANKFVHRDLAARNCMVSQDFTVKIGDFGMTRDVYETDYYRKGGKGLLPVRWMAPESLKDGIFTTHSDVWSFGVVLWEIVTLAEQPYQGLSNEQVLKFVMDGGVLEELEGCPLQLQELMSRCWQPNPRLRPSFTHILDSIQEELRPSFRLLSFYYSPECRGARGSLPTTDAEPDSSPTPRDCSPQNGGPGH
# Structures can show the parent of a compound that is named as a salt. The list shows a part of the results. Hit calls seldom repeat between salt and free forms of one compound.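 Kinases were expressed as nanoluciferase fusions in K562 cells and luminescence was read every 4 h between 2 and 18 h as percent of control, DMSO set to 100% and a positive control to 0%. A time point counts as decreased when the signal drops significantly (2 sigma). The hit call is the authors' own, does not follow from the count of time points alone, and its rule is not shown.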
# Target: INSRR (UniProt P14616)
# Experiment: number of time points (of 5) at which kinase-Nluc abundance scored as decreased, DMSO-normalised (count); higher = more persistent destabilization
# Conditions: K562; 2-18 h
row,SMILES,number of time points
1,Cc1cnc(Cl)nc1-c1ccc(N(Cc2ccc(CNC(=O)C(F)F)cc2)C(=O)c2ccc(O)cc2O)cc1 (10 µM),0
2,COc1cc2c(cc1OC)[C@@H]1C(=O)c3ccc4c(c3O[C@@H]1CO2)C=CC(C)(C)O4 [Deguelin] (10 µM),0
3,CC(C)(CCCCCC(O)CCCCCC(C)(C)C(=O)O)C(=O)O [Bempedoic acid] (10 µM),0
4,COc1cc2nnc(C(N)=O)c(Nc3ccc(C)cc3F)c2cc1N1CCN(CCO)CC1 (2.5 µM),0
5,O=C(Nc1ccc(Cl)cc1)C1CN(C(=O)c2cccc(-c3ccco3)c2)CC(F)(F)C1 (stereo not drawn) (2.5 µM),0
6,CC(=O)O[C@@H]1[C@@H](OC(C)=O)[C@@H](O)[C@H](Oc2c(-c3ccc(O)cc3)oc3cc(O)cc(O)c3c2=O)O[C@H]1C (10 µM),0
7,COc1cc2nc(-c3cc(F)ccc3O)nc(N[C@@H]3CNC[C@H]3C(C)(C)O)c2cc1OC (2.5 µM),0
8,C=CC(=O)Nc1cccc(Oc2nc(Nc3ccc(N4CCN(C)CC4)cc3OC)ncc2Cl)c1 (10 µM),0
9,C=CC(=O)Nc1cc(Nc2nccc(-c3cn(C)c4ccccc34)n2)c(OCC(F)(F)F)nc1N(C)CCNC [AST5902  (trimesylate)] (2.5 µM),0
10,O=C1C=CC2=C3c4cc(O)c(O)cc4CC3(O)COC2=C1O (stereo not drawn) [Hematein] (10 µM),0
11,CCC(F)(F)c1cc(N2CCC(S(C)(=O)=O)CC2)nc2sc(C(N)=O)c(N)c12 (10 µM),0
12,Cn1cc(C2=C(c3ccc(Cl)cc3Cl)C(=O)NC2=O)c2ccccc21 (10 µM),0
13,CCOC(=O)c1c(N2CCc3ccc(OC)cc3C2)oc(C=C2C=Nc3ncccc32)c1O (10 µM),0
14,O=C(COc1ccc(Cl)cc1)NC1CCC(NC(=O)COc2ccc(Cl)cc2)CC1 (stereo not drawn) [ISRIB (trans-isomer)] (10 µM),0
15,COc1ccc(CCNCc2ccc(OCc3ccc(Cl)nc3)c(OC)c2)cc1OC [SBE13 (Hydrochloride)] (10 µM),0
16,Cc1cccc(CC(=O)N2CCc3c2ccc(-c2cn(C)c4ncnc(N)c24)c3F)n1 (10 µM),0
17,COc1cc(N2CCC(N3CCN(C)CC3)CC2)ccc1Nc1ncnc(Nc2ccccc2S(=O)(=O)C(C)C)n1 (10 µM),0
18,CC(C)(Oc1ccc(Cl)cc1)C(=O)Nc1ccc(OCc2ccc(C#N)cc2)cc1 [AMPK activator 4] (10 µM),0
19,Cc1cc(N2CCOCC2)ccc1Nc1nc(NC2CCCCC2)c2[nH]cnc2n1 (10 µM),0

row,SMILES,number of time points
1,COC(=O)N1CCN(C2CCC(Nc3nc(Nc4cnn(C)c4)nc4ccc(CC#N)nc34)CC2)CC1 (stereo not drawn) (10 µM),0
2,CN(C)CCn1cc2cc(NC(=O)c3cccc(C(F)(F)F)n3)c(C(C)(C)O)cc2n1 (10 µM),0
3,CCOc1cc(N2CCC(O)CC2)ccc1Nc1ncc2c(n1)N(C1CCCC1)CCC(=O)N2C (2.5 µM),0
4,CCC[C@H](C)Oc1nc(N)c2[nH]c(=O)n(CCCCCN3CCCCC3)c2n1 (10 µM),0
5,Fc1ccc(-c2nc3n(c2-c2ccncc2)CCS3)cc1 (10 µM),0
6,CC(ONC(=O)c1cc(C(F)(F)F)cc(C(F)(F)F)c1)C(=O)Nc1ccc(Cl)cc1 (stereo not drawn) (2.5 µM),0
7,O=C(Nc1ccccc1C(=O)NC1CCCCNC1=O)c1cc2ccccc2s1 (stereo not drawn) (10 µM),0
8,N#CC(=C(/N)Sc1ccccc1N)/C(C#N)=C(\N)Sc1ccccc1N (10 µM),4
9,Nc1ccc(O)c(C(=O)O)c1 [5-Aminosalicylic Acid] (10 µM),0
10,CNCc1ccccc1Sc1cccc2ccccc12 [IFN alpha-IFNAR-IN-1 (hydrochloride)] (10 µM),1
11,CCCCNc1ncc2c(-c3ccc(F)cc3)nn(CC3CCC(N)CC3)c2n1 (stereo not drawn) (2.5 µM),2
12,Cc1ncsc1-c1ccc(CNC(=O)[C@@H]2C[C@@H](O)CN2C(=O)[C@@H](NC(=O)COCCOc2ccc(-c3cc(Nc4ccc(OC(F)(F)F)cc4)ncn3)cc2)C(C)(C)C)cc1 (2.5 µM),2
13,Cn1cnc2c(F)c(Nc3ccc(Br)cc3F)c(C(=O)NOCCO)cc21 [Binimetinib] (10 µM),0
14,O=C1NC(=O)C(Cc2c[nH]c3c(Cl)cccc23)N1 (stereo not drawn) [Necroptosis-IN-1] (10 µM),0
15,C=CC(=O)N1CCC(c2ccc(C(N)=O)c(-c3ccc(Oc4ccccc4)cc3)n2)CC1 [Orelabrutinib] (2.5 µM),0
16,CN1C(=O)N[C@@H](Cc2c[nH]c3c(Cl)cccc23)C1=O [Necrostatin 2 (S enantiomer)] (10 µM),0
17,N#Cc1cc(-c2ccnc(Nc3ccc(N4CCOCC4)cc3)n2)ccc1OC1CCOCC1 (10 µM),0
18,COc1cccc(-c2cc(=O)c3ccccc3o2)c1N (10 µM),0
19,Nc1ccc(Sc2nc3ccccc3s2)c(Cl)c1 [KRAS inhibitor-9] (10 µM),0

# At a glance, some entries already given.
row,SMILES,number of time points
5,Fc1ccc(-c2nc3n(c2-c2ccncc2)CCS3)cc1 (10 µM),0
6,CC(ONC(=O)c1cc(C(F)(F)F)cc(C(F)(F)F)c1)C(=O)Nc1ccc(Cl)cc1 (stereo not drawn) (2.5 µM),0
